# Results from patent US8415115B2, “Reaction medium for methicillin-resistant Staphylococcus aureus (MRSA) bacteria” (Biomerieux, priority 2008, dated 2013).
# Some results were stated once for a whole list of compounds, not compound by compound.
# Test system: MSSAs
# Test: Sub-inhibitory concentration: below the antibiotic concentration required for inhibition of MSSAs in a culture medium
# Assay type: cell-based, Staphylococcus aureus
# Conditions: culture medium such as chromID S. aureus medium
# Method: The sub-inhibitory concentration is intended to mean a concentration below the concentration of antibiotic required for inhibition of MSSAs, in a culture medium suitable for searching for S. aureus using a biological sample, such as the chromID™ S. aureus medium (bioMerieux). This concentration is below approximately 3 mg/l in the case of Cefoxitin, approximately 2 mg/l in the case of Cefotaxime, approximately 1 mg/l in the case of Ertapenem, approximately 2 mg/l in the case of Cefoperazone, approximately 2 mg/l in the case of Cefpodoxime, and approximately 1 mg/l in the case of Cefdinir.
row,SMILES,Sub-inhibitory concentration [mg/L]
1,C=CC1=C(C(=O)O)N2C(=O)[C@@H](NC(=O)/C(=N\O)c3csc(N)n3)[C@H]2SC1 [Cefdinir],< 1
2,CCN1CCN(C(=O)N[C@@H](C(=O)N[C@@H]2C(=O)N3C(C(=O)O)=C(CSc4nnnn4C)CS[C@H]23)c2ccc(O)cc2)C(=O)C1=O [Cefoperazone],< 2
3,CO/N=C(\C(=O)N[C@@H]1C(=O)N2C(C(=O)O)=C(COC(C)=O)CS[C@H]12)c1csc(N)n1 [Cefotaxime],< 2
4,COCC1=C(C(=O)O)N2C(=O)[C@@H](NC(=O)/C(=N\OC)c3csc(N)n3)[C@H]2SC1 [Cefpodoxime],< 2
5,C[C@@H](O)[C@H]1C(=O)N2C(C(=O)O)=C(S[C@@H]3CN[C@H](C(=O)Nc4cccc(C(=O)O)c4)C3)[C@H](C)[C@H]12 [Ertapenem],< 1
